The text below walks through data of the odorant receptor screen of Mainland et al. (2015).

Several values for one entry are separate records, joined by “and”; a condition that tells them apart may be missing. Equal entries are not always repeated. This is one part of the list. Single wells; the ratio to wells without odorant was worked out here, and repeats agree poorly.

Among the test systems are OR7C2 clone 1292; OR7D2 clone 1405; OR7D4 clone 1298; OR7E24 P242S clone 1314; OR7G1 clone 1295; OR7G2 clone 1475; OR7G3 clone 1297; OR8A1 clone 1503; OR8B12 clone 1731; OR8B4 E22G clone 1227; OR8B8 clone 1226; OR8B8 clone 1504; OR8D1 clone 1142; OR8D2 clone 1179; OR8G1 clone 1395; OR8G5 clone 1323.
Common to all, as to experiment: odorant receptor activation (CRE luciferase / Renilla) (fold of no-odor wells); higher = more activation
Conditions in all cases: 100 µM

Test [1] deals with OR7G2 V263A/F281V clone 1312.
For test [2], the system named is OR8B3 H20R/Q24R/V34I/M114I clone 1727.
In test [3] the test system is OR8B4 Y131H/C140F/C178R clone 1440.
Test [4] deals with OR8D4 C120Y/R133K/F200L/L283P/R298K clone 1072.

Consider `CCC1(O)C2(C)CCC(C2)C1(C)C` (stereo unspecified) [2-ethylfenchol], for which the odorant receptor activation in the test on OR7C2 clone 1292 is 0.931; with OR7D2 clone 1405 it was 0.782; with OR7D4 clone 1298, 1; in the test on OR7E24 P242S clone 1314, 0.613; in the test with OR7G1 clone 1295, 1.14; in test [1] it was 0.871. The odorant receptor activation in the test on OR7G2 clone 1475 amounted to 1.09; in the test with OR7G3 clone 1297 it was 0.665; with OR8A1 clone 1503, 1.27; in the test on OR8B12 clone 1731, 0.933; in test [2], 0.401; in the test with OR8B4 E22G clone 1227, 1.19. Besides, the odorant receptor activation was 0.701 in test [3]; 1.44 in the test on OR8B8 clone 1226; 1.19 in the test with OR8B8 clone 1504; 0.683 with OR8D1 clone 1142; 0.935 in the test on OR8D2 clone 1179; 2.39 in [4]. In addition, the odorant receptor activation in the test with OR8G1 clone 1395 was determined as 0.746; in the test on OR8G5 clone 1323, 0.742.

Regarding `COc1cc(C=O)ccc1O` [vanillin], the odorant receptor activation in the test with OR7C2 clone 1292 was 0.998; in the test on OR7D2 clone 1405, 0.958; in the test on OR7D4 clone 1298, 0.898; in the test on OR7E24 P242S clone 1314, 0.974; in the test with OR7G1 clone 1295 it was 1.02; in test [1], 0.957. Moreover, the odorant receptor activation with OR7G2 clone 1475 was determined as 1.15; in the test on OR7G3 clone 1297, 0.875; in the test with OR8A1 clone 1503 it was 1.01; in the test on OR8B12 clone 1731, 0.675; in [2] it was 0.557; with OR8B4 E22G clone 1227 it was 1.46. The odorant receptor activation in test [3] worked out at 0.832; in the test on OR8B8 clone 1226 it was 0.874; with OR8B8 clone 1504, 1.15; with OR8D1 clone 1142 it was 1.35; with OR8D2 clone 1179, 0.839; in test [4], 1.1. Further, the odorant receptor activation was 0.931 in the test on OR8G1 clone 1395 and 0.881 with OR8G5 clone 1323.

As to `CC1=NC(C)SC1C` (stereo unspecified), the odorant receptor activation with OR7C2 clone 1292 was determined as 1.19; in the test on OR7D2 clone 1405, 1.11; in the test on OR7D4 clone 1298 it was 1.18; in the test with OR7E24 P242S clone 1314, 1.04; in the test with OR7G1 clone 1295 it was 1.73; in [1], 0.976. The odorant receptor activation with OR7G2 clone 1475 was 1.25 and 1.16; in the test with OR7G3 clone 1297, 0.651; in the test on OR8A1 clone 1503, 0.908 and 0.95; with OR8B4 E22G clone 1227, 0.913; in [3], 1.09; in the test with OR8B8 clone 1226 it was 1.01. The odorant receptor activation with OR8B8 clone 1504 is 1.28 and 0.971; in the test on OR8D1 clone 1142, 0.688; in the test with OR8D2 clone 1179, 0.797; in test [4], 1.12; with OR8G1 clone 1395 it was 1.09; with OR8G5 clone 1323 it was 1.06.

For `C=C(C)C1CC=C(C)C(=O)C1` (stereo unspecified) [r-carvone], the odorant receptor activation was determined as 0.69 in the test on OR7C2 clone 1292; 1.13 in the test on OR7D2 clone 1405; 0.697 in the test on OR7D4 clone 1298; 0.87 in the test on OR7E24 P242S clone 1314; 0.739 in the test on OR7G1 clone 1295; 0.926 in test [1]. Also, the odorant receptor activation in the test with OR7G2 clone 1475 amounted to 0.82; with OR7G3 clone 1297 it was 0.86; with OR8A1 clone 1503, 0.886; with OR8B12 clone 1731 it was 0.672; in test [2], 1.6; in the test on OR8B4 E22G clone 1227, 1.65. Also, the odorant receptor activation in test [3] is 1.1; in the test with OR8B8 clone 1226, 0.913; with OR8B8 clone 1504, 1.08; with OR8D1 clone 1142, 0.934; with OR8D2 clone 1179, 0.843; in test [4], 1.29. For the same compound, the odorant receptor activation in the test on OR8G1 clone 1395 was found to be 1.07; in the test on OR8G5 clone 1323 it was 0.652.

`CCCCCCC=O` [heptaldehyde]: the odorant receptor activation with OR7C2 clone 1292 is 0.72 and 0.703 and 1.17; with OR7D2 clone 1405 it was 1.11 and 0.689; in the test on OR7D4 clone 1298 it was 0.661 and 0.822 and 0.985; in the test with OR7E24 P242S clone 1314, 1.43 and 1.04 and 1.11; in the test with OR7G1 clone 1295, 0.442 and 0.918 and 1.15; in the test on OR7G3 clone 1297, 0.691 and 0.934 and 0.825. Moreover, the odorant receptor activation in the test on OR8B12 clone 1731 is 0.834; in test [2], 0.92; in test [3] it was 0.923 and 0.948; in the test on OR8B8 clone 1226, 0.414 and 0.821; in test [4], 2.5 and 2.55; with OR8G1 clone 1395, 1.09 and 0.763. In the test on OR8G5 clone 1323, the odorant receptor activation is 0.688 and 0.755 and 0.984.

Take `CC=Cc1ccc(O)c(OC)c1` [isoeugenol]: the odorant receptor activation was 1.18 and 1.13 in the test with OR7C2 clone 1292; 1.18 in the test with OR7D2 clone 1405; 0.994 and 1.5 with OR7D4 clone 1298; 1.36 and 1.2 in the test on OR7E24 P242S clone 1314; 0.807 and 1.06 in the test with OR7G1 clone 1295; 1.54 and 0.994 in test [1]. The odorant receptor activation in the test with OR7G2 clone 1475 was 1.24 and 2.24; in the test with OR7G3 clone 1297, 0.826 and 1.17; in the test with OR8A1 clone 1503 it was 1.59 and 2.08; with OR8B12 clone 1731, 6.4; in [2], 3.85; in the test on OR8B4 E22G clone 1227, 0.995. In addition, the odorant receptor activation in test [3] was 1.36; in the test on OR8B8 clone 1226 it was 0.98; in the test on OR8B8 clone 1504, 1.42 and 2.19; in the test on OR8D1 clone 1142, 1.01; in the test with OR8D2 clone 1179, 1.13; in [4], 3.4. Also, the odorant receptor activation with OR8G1 clone 1395 is 1.24; in the test with OR8G5 clone 1323, 0.945 and 1.25.

As for `COC(=O)c1ccccc1O` [methyl salicylate], the odorant receptor activation was 0.881 in the test on OR7C2 clone 1292; 0.937 with OR7D2 clone 1405; 0.985 with OR7D4 clone 1298; 0.836 in the test with OR7E24 P242S clone 1314; 0.948 in the test with OR7G1 clone 1295; 0.732 in test [1]. Also, the odorant receptor activation in the test on OR7G2 clone 1475 turned out to be 1.04; with OR7G3 clone 1297, 0.99; with OR8A1 clone 1503 it was 0.841; in the test on OR8B12 clone 1731, 0.911; in test [2] it was 0.794; in the test on OR8B4 E22G clone 1227, 0.826. Besides, the odorant receptor activation was determined as 1.13 in test [3]; 0.957 with OR8B8 clone 1226; 0.881 in the test on OR8B8 clone 1504; 0.903 in the test on OR8D1 clone 1142; 0.855 in the test with OR8D2 clone 1179; 0.963 in test [4]. Further, the results for the odorant receptor activation in the test on OR8G1 clone 1395 and with OR8G5 clone 1323 were 1.38 and 0.737, respectively.
